From paper doi:10.1101/431023 come the findings set out here.

For assay [1], the target named is T1, 3xFLAG-BirA*-tagged TCF7L1 at the endogenous TCF7L1 locus (mouse (endogenous in mESCs)) (UniProt Q9Z1J1).
T1 sequence: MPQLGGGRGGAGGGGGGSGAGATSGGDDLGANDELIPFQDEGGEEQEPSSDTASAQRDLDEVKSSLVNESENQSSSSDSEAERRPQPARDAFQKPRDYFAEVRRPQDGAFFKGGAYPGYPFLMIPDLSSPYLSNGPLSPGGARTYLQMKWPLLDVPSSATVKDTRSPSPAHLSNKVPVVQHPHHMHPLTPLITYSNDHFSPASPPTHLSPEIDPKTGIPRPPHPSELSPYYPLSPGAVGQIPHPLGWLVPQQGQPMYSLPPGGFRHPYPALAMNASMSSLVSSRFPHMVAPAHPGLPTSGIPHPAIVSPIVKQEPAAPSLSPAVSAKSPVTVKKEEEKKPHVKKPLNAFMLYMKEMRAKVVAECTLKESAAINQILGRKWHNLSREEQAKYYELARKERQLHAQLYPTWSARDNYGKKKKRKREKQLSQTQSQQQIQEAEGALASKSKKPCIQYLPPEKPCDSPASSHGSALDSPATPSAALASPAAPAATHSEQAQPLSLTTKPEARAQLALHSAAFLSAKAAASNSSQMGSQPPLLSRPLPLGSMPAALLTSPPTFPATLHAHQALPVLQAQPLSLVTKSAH
As to the kind of experiment: proximity labelling.

Assay [2] deals with T2, dox-inducible 3xFLAG-BirA*-tagged TCF7L1 in the Rosa26 locus (UniProt Q9Z1J1).
T2 sequence: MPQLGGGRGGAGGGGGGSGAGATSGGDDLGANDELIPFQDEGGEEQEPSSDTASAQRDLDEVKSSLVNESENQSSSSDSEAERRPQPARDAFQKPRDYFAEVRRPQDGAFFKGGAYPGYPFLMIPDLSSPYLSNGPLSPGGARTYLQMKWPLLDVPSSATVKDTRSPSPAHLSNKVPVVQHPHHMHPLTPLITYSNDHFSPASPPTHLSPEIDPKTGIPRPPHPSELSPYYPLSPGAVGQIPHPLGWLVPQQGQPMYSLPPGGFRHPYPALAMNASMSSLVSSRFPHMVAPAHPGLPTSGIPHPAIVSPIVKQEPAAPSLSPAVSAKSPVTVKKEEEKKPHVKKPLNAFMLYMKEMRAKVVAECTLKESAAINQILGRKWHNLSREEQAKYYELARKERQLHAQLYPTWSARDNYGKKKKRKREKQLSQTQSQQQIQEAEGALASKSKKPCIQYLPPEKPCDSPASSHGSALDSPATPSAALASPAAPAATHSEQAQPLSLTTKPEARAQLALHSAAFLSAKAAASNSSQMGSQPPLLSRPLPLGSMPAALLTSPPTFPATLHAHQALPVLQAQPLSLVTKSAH
As to the kind of experiment: proximity labelling.

These are yes or no findings as the source states them, for the method shown. Binding seen in cells or lysates may run through a third protein. Here binding means that the protein was enriched with, or labelled near, the bait; the list need not be complete. Where a sequence is shown, tags or fusion partners need not be part of it.

B1: SALL1 (protein, UniProt Q9ER74 1-1322)
chain: MSRRKQAKPQHFQSDPEVASLPRRDGDTEKGQPSRPTKSKDAHVCGRCCAEFFELSDLLLHKKSCTKNQLVLIVNESPASPAKTFPPGPSLNDPDDQMKDAANKADQEDCSDLSEPKGLDREESMEVEVPVATTTTTTTGGSGGSGGSTLSGVTNITTPSCHSGCSSGTSAITTSLPQLGDLTTLGNFSVINSNVIIENLQSTKVAVAQFSQEARCGGASGGKLLISTLMEQLLALQQQQIHQLQLIEQIRHQILLLASQSADLPAAPSIPSQGTLRTSANPLTTLSSHLSQQLAVAAGLAQSLASQSANISGVKQLPHVQLPQSSSGTSIVPPSGGTSPNMSIVTAAVPTPSSEKVASNAGASHVSSPAVSASSSPAFAISSLLSPESNPLLPQPTPANAVFPTPLPNIATTAEDLNSLSALAQQRKSKPPNVTAFEAKSTSDEAFFKHKCRFCAKVFGSDSALQIHLRSHTGERPFKCNICGNRFSTKGNLKVHFQRHKEKYPHIQMNPYPVPEHLDNVPTSTGIPYGMSIPSEKPVTSWLDTKPVLPTLTTSVGLPLPPTLPSLTPFIKTEEPAPIPISHSAASPQGSVKSDSGAPDLATRNPSGVPEEVEGSAVPPFGGKGEESNMASSAVPTAGNSTLNSPVADGGPGGTTFTNPLLPLMSEQFKAKFPFGGLLDSAQASETSKLQQLVENIDKKATDPNECIICHRVLSCQSALKMHYRTHTGERPFKCKICGRAFTTKGNLKTHYSVHRAMPPLRVQHSCPICQKKFTNAVVLQQHIRMHMGGQIPNTPVPDNYPESMESDTGSFDEKNFDDLDNFSDENMEECPEGSIPDTPKSADASQDSLSSSPLPLEMSSIAALENQMKMINAGLAEQLQASLKSVENGSMEGDVLTNDSSSVGGDMESQSAGSPAISESTSSMQALSPSNSTQEFHKSPGMEEKPQRVGPGEFANGLSPTPVNGGALDLTSSHAEKIIKEDSLGILFPFRDRGKFKNTACDICGKTFACQSALDIHYRSHTKERPFICTVCNRGFSTKGNLKQHMLTHQMRDLPSQLFEPSSNLGPNQNSAVIPANSLSSLIKTEVNGFVHVSPQDSKDAPTSHVPQGPLSSSATSPVLLPALPRRTPKQHYCNTCGKTFSSSSALQIHERTHTGEKPFACTICGRAFTTKGNLKVHMGTHMWNSTPARRGRRLSVDGPMTFLGGNPVKFPEMFQKDLAARSGSGDPSSFWNQYTAALSNGLAMKANEISVIQNGGIPPIPGSLGSGSSPISGLTGNVEKLGNSEPSAPLAGLEKMASSENGTNFRFTRFVEDSKEIVTS
For the molecule B1, the binding result in assay [1] and in assay [2] was “binds” each time.

B2: ARID3B (protein, UniProt Q9Z1N7 1-568)
chain: MEPLQQQQQQQQQKQPQQPLLQMDAREKQGPQTRESQFLYASKLGTQPALLSITPGRPSGSSVLGPLARVPPATPVARMSEQSNVNSEPEEEEGGLEDEDGDDDVAEVAEKEAQAASKYFHMQKVTRQEPRATPMSSLLPVPGLSPQGQQTKEDHTKDASKAPPSVPTAGQPSWSLDEQLKQNGALAWSDDADGGRGREISRDFAKLYELDGDPERKEFLDDLFIFMQKRGTPINRIPIMAKQILDLYMLYKLVTEKGGLVEIINKKIWREITKGLNLPTSITSAAFTLRTQYMKYLYAYECEKKALSSPAELQAAIDGNRREGRRPSYSSSLFGYSPAAAAAAAAAAAAAAASAASAGTPALLSSPKIRFSILGLGSSSGTSASSPRIPPASTLRKGDGVPVPVPNRLAVSGTLAGQQAGNRPGPLEHLRERLESGEPPEKKASRLSEEEQRLVQQAFQRNLFSMARQLPMKIRINGREDRAEPSAPALNLTTSNIGSINMSVDIDGTTYTGVLFAQKPVVHLIAGSTPQSIGSSASSSNSSSSHCSPSPTSSRGTPSAEPSTSWSL
Regarding B2, the binding entry in assay [1] and in assay [2] was “binds” in each case.

B3: PHF14 (protein, UniProt Q9D4H9 1-941)
chain: MDRSSKRRQVKPLAASLLEALDYDSSDDSDFKVGDASDSEGSGNGSEDPSKDSGEGSCSDSEENILEEELNEDIQVKEEQLKNSTEEIMPSDKQLIKMEKKEEEENGERPRKKKEKEKEKEKEREKDKEKATVSDSAAASAAGTTPATSPPAVTSPSVPTTTTTTTEEQVSEPKKWNLRRNRPLLDFVSMEELNAMDDYDSEDDNDWRPTVVKRKGRSASQKEGSDGDNEDDDDEGSGSEEDENDEGNDEDHSSPASEAGGKKKRSKVLSRNSADDEELTNDSLTLSQSKSNEDSLILEKSQNWSSQKMDHILICCVCLGDNSEDADEIIQCDNCGITVHEGCYGVDGESDSIMSSASENSTEPWFCDACKCGVSPSCELCPNQDGIFKETDAGRWVHIVCALYVPGVAFGDIDKLRPVTLTEMNYSKYGAKECSFCEDPRFARTGVCISCDAGMCRAYFHVTCAQKEGLLSEAAAEEDIADPFFAYCKQHADRLDRKWKRKNYLALQSYCKMSLQEREKQLSPEAQARINARLQQYRAKAELARSTRPQAWVPREKLPRPLTSSASAIRKLMRKAELMGISTDIFPVDNSDTSSSVDGRRKHKQPALTADFVNYYFERNMRMIQIQENMAEQKNIKDKLENEQEKLHVEYNKLCESLEELQNLNGKLRSEGQGIWALLGRITGQKLNVPAILRAPKERKPSKKEGGTQKTSALPTVLYSCGICKKNHDQHLLLLCDTCKLHYHLGCLDPPLTRMPRKTKNSYWQCSECDQAGSSDMEAEMAMETLPDGTKRSRRQIKEPVKFVPQDVPPEPKKIPIRNTRTRGRKRSFVPEEEKHEERVPRERRQRQSVLQKKPKAEDLRTECSTCKGTGDNENLVRCDECRLCYHFGCLDPPLKKSPKQTGYGWICQECDSSSSKEDENEAEKKNASQELSMEQKTPKK
B3: the binding entry in assay [1] and in assay [2] was “binds” in each case.
